No constants are given. Whether binding was seen depends on the method and setting. Binding seen in cells or lysates may run through a third protein. A result given as binding can be weak or reduced; the word gives no strength. Where a sequence is shown, tags or fusion partners need not be part of it.
Target: T1, GST-DNA ligase IV, human DNA ligase IV residues 618-911 (human) (UniProt P49917)
T1 sequence: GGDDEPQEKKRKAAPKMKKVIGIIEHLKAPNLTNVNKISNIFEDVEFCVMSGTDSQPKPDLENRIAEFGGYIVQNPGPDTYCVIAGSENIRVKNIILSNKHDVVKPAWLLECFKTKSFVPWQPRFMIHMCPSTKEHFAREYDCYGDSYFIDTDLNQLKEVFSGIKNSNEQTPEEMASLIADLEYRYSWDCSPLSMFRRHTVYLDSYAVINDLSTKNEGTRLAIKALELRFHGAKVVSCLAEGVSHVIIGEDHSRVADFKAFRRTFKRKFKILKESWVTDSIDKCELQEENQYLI
Experiment: pull-down; GST-tagged protein from E. coli immobilised on glutathione-Sepharose beads; cleared cell lysate (HEK, HeLa, Hs578T or Cos7) as the source of the partner; 4 hours at 4°C; immunoblot; only the target purified

With “FLAG-tagged full-length GIV wild type (human)” the binding was “binds”.

— paper PMC9900518
